# Literature values, collected in US5783587A, “Benzoyl Piperidines/pyrrolidines for enhancing synaptic response” (The Regents of the University of California, priority 1997, dated 1998).
# For at least one compound, name, drawing or mass did not settle the structure.
# Tests used:
# [1] = system: AMPA receptors; conditions: brain AMPA receptors expressed in Xenopus oocytes; cited from earlier work
# [2] = system: γ-aminobutyric acid (GABA) receptors; conditions: Xenopus oocytes; cited from earlier work
# [3] = system: kainic acid (KA) receptors; conditions: Xenopus oocytes; cited from earlier work
# [4] = system: NMDA receptors; conditions: Xenopus oocytes; cited from earlier work
# [5] = system: hippocampus; conditions: cited from earlier work
# [6] = system: NMDA receptor; conditions: cited from earlier work
# [7] = system: AMPA receptor channel; conditions: cited from earlier work
# [8] = infusion into slices of hippocampus
compound,measurement,setting,value
"COc1ccc(C(=O)N2CCCC2=O)cc1 [aniracetam, N-anisoyl-2-pyrrolidinone]",effect on AMPA receptor-mediated currents,[1],increases currents mediated by brain AMPA receptors
same,effect on GABA responses,[2],without affecting responses
same,effect on kainic acid responses,[3],without affecting responses
same,effect on NMDA receptor responses,[4],without affecting responses
same,effects of repeated application,[5]; applied repeatedly,no apparent lasting effects
same,onset and washout,[5],extremely rapid onset and washout
same,effect on resting membrane properties,[5]; [8],without altering resting membrane properties
same,size of fast synaptic potentials,[5]; [8],substantially increase the size of fast synaptic potentials
same,effect on synaptic responses in hippocampus,[5]; several sites in hippocampus,enhances synaptic responses at several sites in hippocampus
same,concentration at which the drug works,[5]; works only at high concentrations,about 1.0 mM
same,effect on NMDA-receptor mediated potentials,[6],no effect on NMDA-receptor mediated potentials
same,amplitude of the synaptic current,[7],increases the amplitude of the synaptic current
same,duration of the synaptic current,[7],prolongs its duration
same,mean open time of the AMPA receptor channel,[7],increases the mean open time of the AMPA receptor channel
same,amplitude of the response,[7]; field EPSP,augment the amplitude of the response
same,duration of the response,[7]; field EPSP,extend the duration of the response
